According to paper PMC9262611:
No constants are given. Whether binding was seen depends on the method and setting. Binding can be weak; no strength is given. Where a sequence is shown, tags or fusion partners need not be part of it. For some assays here: Binding seen in cells or lysates may run through a third protein. One block for each binder: values may come before it.

Tests used:
[1] = molecular target: AtNusG:YFP^N (Arabidopsis thaliana); experiment: split reporter; BiFC with split YFP (pUC-SPYNE, pUC-SPYCE) in Arabidopsis protoplasts, confocal microscopy
[2] = molecular target: AtNusG:YFP^C (Arabidopsis thaliana); experiment: as above
[3] = molecular target: MBP:AtNusG (AtNusG^106-333) (Arabidopsis thaliana) (UniProt F4IZV4); experiment: pull-down; MBP:AtNusG or empty MBP held on MBP beads, PAP9:His added overnight at 4°C, 20 mM Tris-HCl pH 7.0, 200 mM NaCl; immunoblot with anti-His-tag antibody; both purified
[4] = molecular target: AtNusG:MYC (Nicotiana benthamiana) (Arabidopsis thaliana); experiment: co-IP; PAP9:FLAG and AtNusG:MYC coproduced in N. benthamiana leaves; anti-c-MYC magnetic beads, 4°C, 4 h; immunoblot with anti-FLAG

B2: PAP5:YFP^C (protein, UniProt F4IHY7 31-527)
chain: VKCGFPLKTLHAGITSRDRSLRHCIKCKKEDGDGDVSEGSKKSEEGFEYVTVERHPYHSYMDSTSGKLEPASGARASIPGEDYWPEGTSSRVRAARAPQPAGESSSFPSYGKNPGSRRKKNRKATEENVTVETNDEVSDSEDSSEEEENDSSDGFVTYKNEFEREEEETGFELDKKLGRPHPFIDPTKKKQIEKTLTSDESWWNWRKPEKEQWSRWQRRRPDVETVFLKAMAETGQVKLYGEEPTLTETSLYRARRHLFKEERLQAERERLAKEGPMAFYSEWVKAWKRDTSREAVQKHFEETGEDENTQLIEMFSHQTDREYRIMMGTDIRIKRDPLAMRMREDQIKQIWGGDPVYPTINYIQDPNAVMDFRGPDFHEPTPNMLSYLKENGKVISREMHEALLTKEKTEQLEVPDMDDAMAQAVDIGENDDDEDDADVEKDDEKVPRNWSVLKETPELRTAKPKPKKEGRMSLDEAVDDAENLTDFLMDFEEETDP
binding [1]: no binding

B3: PRPS10:YFP^N (protein, UniProt Q9LK61 57-191)
chain: AVPDTLDPTPEILDEPASEVPSSSSISVDADKMAPKQKIRIKLRSYWVPLIEDSCKQILDAARNTNAKTMGPVPLPTKKRIYCVLKSPHVHKDARFHFEIRTHQRMIDILYPTAQTIDSLMQLDLPAGVDVEVKL
binding [2]: binds

B4: PRPS10:YFP^C (protein, UniProt Q9LK61 57-191)
chain: B3 chain
binding [1]: binds

B5: FSD2/PAP9:YFP^C (protein, UniProt Q9LU64 47-305)
chain: GVITAGFELKPPPYPLDALEPHMSRETLDYHWGKHHKTYVENLNKQILGTDLDALSLEEVVLLSYNKGNMLPAFNNAAQAWNHEFFWESIQPGGGGKPTGELLRLIERDFGSFEEFLERFKSAAASNFGSGWTWLAYKANRLDVANAVNPLPKEEDKKLVIVKTPNAVNPLVWDYSPLLTIDTWEHAYYLDFENRRAEYINTFMEKLVSWETVSTRLESAIARAVQREQEGTETEDEENPDDEVPEVYLDSDIDVSEVD
binding [1]: binds

B9: PAP7:YFP^C (protein, UniProt Q84JF5 63-483)
chain: ASEESSSSELETADPDFYKIGYVRSVRAYGVEFKEGPDGFGVYASKDIEPRRRARVIMEIPLELMITIRQKHPWMFFPDIVPIGHPIFDIINSTDPEIDWDIRLACLLLFSFDRDDHFWRLYGDFLPAADECSSLLLATEEDLAELQDPDLVSTIRQQQKRILDFWEKNWHSGVPLKIKRLAEDPERFIWAVSMAQTRCISMQTRVGALVQELNMMIPYADMLNHSFEPNCFLHWRPKDRMLEVMSNAGQDIKKGEEMTINYMPGQKNNMLMERYGFSTPVNPWDAIKFSGDSRIHLNSFLSVFNIYGLPEEYYHDSELSRGDTFVDGAVIAAARTLPTWSDIDLPPIPSAERKAVKELQDECRKMLAEYPTTAEQDQKLLDSMSEARTTFATAVKYRMHRKMFIGKIIKALDIYQERLLY
binding [1]: no binding

B11: PAP10:YFP^C (protein, UniProt Q9M7X9 82-183)
chain: AQELQELVKGDRKVPLIVDFYATWCGPCILMAQELEMLAVEYESNAIIVKVDTDDEYEFARDMQVRGLPTLFFISPDPSKDAIRTEGLIPLQMMHDIIDNEM
binding [1]: no binding

Continued, values first:

binding [1]: no binding
B1: PAP8:YFP^C (protein, UniProt Q9XI19 60-328)
chain: ADGGGADEYDMDDEEVEEVDNKKDYDVEYDPLAAAIAAAGGGGDGDIAFVQSKSFISTQGWDSDMVVDYRINEDEFHKLSLMDCDFFIRKPPDPDNDVYDFREMYVTPPDTDIYSIPRVLAPMPQKYIRCAMSDYGCYNVTEPPIDAPRDPLYKSEREISKVFLTKHYRNRRTNDPEFVLDLEEIYVIDSKTKSITRARVLVTVPGGRKRDRKDDLLVIRDNGTSFKIIHVGERDDPTTVIEREEWTKTREDMEKHLRKLRDFSVSNWF

binding [2]: binds
B6: FSD2/PAP9:YFP^N (protein, UniProt Q9LU64 47-305)
chain: B5 chain

binding [3]: binds
B7: PAP9:His (protein, UniProt Q9LU64 47-305)
chain: B5 chain

binding [4]: binds
B8: PAP9:FLAG (protein, UniProt Q9LU64 47-305)
chain: B5 chain

binding [1]: no binding
B10: PAP6:YFP^C (protein, UniProt Q9M394 39-471)
chain: ASINGSGITNGAAAETTSKPSRKGRKKKQTSTVIEKDNTETDPELNPELADYDDGIEFPYDDPPLVCCFGAVQKEFVPVVRVHDNPMHPDMYSQWKMLQWDPPEFGRAPGGPPSNVAISHVRLGGRAAFMGKVGEDDFGDELVLMMNQERVQTRAVKFDENSKTACTRVKIKFKDGKMMAETVKEPPEDSLFASELNLAVLKEARIFHFNSEVLTSPTMQSTLFTAIQWSKKFGGLIFFDLNLPLPLWRSRNETRKLIKKAWNEANIIEVSQQELEFLLDEDYYERRRNYTPQYFAEDFDQTKNRRDYYHYTPEEIKSLWHDKLKLLVVTDGTLRLHYYTPTFDGVVIGTEDVLITPFTCDRTGSGDAVVAGIMRKLTTCPEMFEDQDVMERQLRFAVAAGIIAQWTIGAVRGFPTESATQNLKEQVYVPSMW
